Source: the supplement of paper PMC10849652
This is one part of the list.

The chains behind the UniProt entries cited, without tags or fusion partners. Where a name states a change or a piece, a line headed by the entry shows the natural chain unless it says otherwise.
UniProt Q9H1I8: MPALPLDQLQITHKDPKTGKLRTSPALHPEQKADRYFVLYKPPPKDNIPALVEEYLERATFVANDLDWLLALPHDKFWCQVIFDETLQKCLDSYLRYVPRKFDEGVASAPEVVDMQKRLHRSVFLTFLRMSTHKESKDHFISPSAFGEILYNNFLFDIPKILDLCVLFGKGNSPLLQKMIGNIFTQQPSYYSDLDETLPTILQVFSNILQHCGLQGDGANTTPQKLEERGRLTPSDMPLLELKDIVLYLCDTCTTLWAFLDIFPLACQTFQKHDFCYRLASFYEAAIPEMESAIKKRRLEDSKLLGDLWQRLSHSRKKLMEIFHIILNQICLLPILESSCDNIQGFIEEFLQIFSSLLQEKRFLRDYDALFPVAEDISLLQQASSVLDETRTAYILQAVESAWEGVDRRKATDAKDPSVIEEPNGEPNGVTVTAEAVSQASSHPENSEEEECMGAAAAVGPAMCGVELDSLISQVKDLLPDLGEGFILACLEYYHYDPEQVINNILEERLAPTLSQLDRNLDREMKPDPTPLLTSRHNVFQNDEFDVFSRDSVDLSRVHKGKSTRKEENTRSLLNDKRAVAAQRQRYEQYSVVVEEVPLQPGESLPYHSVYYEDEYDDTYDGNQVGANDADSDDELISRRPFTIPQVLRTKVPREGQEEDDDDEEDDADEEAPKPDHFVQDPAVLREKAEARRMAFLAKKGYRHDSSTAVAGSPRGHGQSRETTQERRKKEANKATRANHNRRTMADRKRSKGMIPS
UniProt Q2TAZ0: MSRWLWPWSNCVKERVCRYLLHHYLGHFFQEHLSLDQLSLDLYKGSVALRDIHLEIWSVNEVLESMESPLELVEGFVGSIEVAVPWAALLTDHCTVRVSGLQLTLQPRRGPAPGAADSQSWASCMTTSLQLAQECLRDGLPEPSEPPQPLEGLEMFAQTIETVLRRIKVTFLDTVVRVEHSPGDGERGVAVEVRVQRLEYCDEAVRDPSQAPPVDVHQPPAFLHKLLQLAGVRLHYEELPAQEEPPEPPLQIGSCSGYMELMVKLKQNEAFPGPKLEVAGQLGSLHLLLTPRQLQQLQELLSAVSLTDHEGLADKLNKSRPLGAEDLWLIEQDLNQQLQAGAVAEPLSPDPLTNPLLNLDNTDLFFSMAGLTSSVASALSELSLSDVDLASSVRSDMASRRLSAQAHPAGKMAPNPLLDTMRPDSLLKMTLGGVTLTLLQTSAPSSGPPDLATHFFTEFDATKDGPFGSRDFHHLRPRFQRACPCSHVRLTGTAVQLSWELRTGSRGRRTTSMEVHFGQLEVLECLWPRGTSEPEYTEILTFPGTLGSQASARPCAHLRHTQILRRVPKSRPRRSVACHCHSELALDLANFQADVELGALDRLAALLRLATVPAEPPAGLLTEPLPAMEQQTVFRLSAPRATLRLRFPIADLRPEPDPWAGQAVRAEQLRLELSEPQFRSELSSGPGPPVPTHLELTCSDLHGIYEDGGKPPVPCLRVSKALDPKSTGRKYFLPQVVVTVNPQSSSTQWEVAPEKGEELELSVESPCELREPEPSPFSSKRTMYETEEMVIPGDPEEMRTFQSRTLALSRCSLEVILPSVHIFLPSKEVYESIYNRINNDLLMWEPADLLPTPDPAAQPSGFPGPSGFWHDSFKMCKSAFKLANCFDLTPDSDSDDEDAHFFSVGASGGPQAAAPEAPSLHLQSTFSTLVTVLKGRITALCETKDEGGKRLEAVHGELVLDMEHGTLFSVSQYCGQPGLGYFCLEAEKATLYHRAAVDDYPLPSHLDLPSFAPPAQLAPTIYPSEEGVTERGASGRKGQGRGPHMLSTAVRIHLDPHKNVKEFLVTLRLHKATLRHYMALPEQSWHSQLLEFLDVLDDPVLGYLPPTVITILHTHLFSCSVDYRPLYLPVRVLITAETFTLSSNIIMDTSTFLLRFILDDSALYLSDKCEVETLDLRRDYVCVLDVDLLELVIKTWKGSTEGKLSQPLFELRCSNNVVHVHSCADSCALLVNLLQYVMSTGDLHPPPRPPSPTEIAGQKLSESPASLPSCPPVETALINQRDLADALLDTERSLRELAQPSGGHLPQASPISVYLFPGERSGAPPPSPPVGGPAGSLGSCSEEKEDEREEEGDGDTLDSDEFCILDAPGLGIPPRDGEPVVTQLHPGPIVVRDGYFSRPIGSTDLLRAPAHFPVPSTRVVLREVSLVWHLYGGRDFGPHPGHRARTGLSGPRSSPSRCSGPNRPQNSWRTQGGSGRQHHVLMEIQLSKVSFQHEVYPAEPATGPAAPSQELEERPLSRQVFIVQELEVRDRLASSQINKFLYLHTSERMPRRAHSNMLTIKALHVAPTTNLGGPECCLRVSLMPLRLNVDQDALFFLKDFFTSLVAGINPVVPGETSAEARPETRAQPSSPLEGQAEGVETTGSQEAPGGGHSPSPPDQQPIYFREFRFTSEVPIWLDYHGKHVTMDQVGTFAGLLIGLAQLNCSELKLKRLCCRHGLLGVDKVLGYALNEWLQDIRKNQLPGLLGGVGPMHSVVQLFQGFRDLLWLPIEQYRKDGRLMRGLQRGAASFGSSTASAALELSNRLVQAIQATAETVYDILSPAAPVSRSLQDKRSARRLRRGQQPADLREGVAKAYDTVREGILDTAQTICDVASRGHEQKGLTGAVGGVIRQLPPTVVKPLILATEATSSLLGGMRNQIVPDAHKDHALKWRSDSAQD
UniProt O95376: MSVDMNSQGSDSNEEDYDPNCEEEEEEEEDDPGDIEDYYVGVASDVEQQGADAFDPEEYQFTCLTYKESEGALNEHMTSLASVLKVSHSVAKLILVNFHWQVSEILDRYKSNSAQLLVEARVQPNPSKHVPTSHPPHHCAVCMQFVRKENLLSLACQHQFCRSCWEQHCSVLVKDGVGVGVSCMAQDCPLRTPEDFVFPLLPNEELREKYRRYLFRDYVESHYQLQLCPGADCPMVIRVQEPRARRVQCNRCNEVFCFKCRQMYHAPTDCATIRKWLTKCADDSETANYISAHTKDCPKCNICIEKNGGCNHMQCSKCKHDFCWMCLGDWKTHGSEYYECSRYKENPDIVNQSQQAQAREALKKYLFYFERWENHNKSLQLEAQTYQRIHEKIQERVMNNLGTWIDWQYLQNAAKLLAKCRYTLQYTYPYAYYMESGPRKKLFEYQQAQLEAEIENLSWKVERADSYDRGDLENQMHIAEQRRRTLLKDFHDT
UniProt Q8N9N2: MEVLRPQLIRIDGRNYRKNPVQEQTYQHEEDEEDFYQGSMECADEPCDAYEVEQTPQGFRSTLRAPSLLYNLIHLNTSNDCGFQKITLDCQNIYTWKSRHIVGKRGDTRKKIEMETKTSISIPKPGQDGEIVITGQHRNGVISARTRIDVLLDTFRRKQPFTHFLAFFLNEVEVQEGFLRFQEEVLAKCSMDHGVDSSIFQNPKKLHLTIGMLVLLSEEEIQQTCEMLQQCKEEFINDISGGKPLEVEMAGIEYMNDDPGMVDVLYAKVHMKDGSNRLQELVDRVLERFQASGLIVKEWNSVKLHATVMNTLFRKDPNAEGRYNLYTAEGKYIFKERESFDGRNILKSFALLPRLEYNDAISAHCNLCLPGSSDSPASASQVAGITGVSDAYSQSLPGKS
UniProt O75947: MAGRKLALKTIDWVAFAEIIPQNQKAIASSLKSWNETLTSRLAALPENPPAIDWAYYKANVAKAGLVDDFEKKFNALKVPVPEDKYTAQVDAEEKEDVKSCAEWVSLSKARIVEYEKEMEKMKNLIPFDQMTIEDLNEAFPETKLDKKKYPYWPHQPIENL
UniProt Q92747, whole entry, looked up: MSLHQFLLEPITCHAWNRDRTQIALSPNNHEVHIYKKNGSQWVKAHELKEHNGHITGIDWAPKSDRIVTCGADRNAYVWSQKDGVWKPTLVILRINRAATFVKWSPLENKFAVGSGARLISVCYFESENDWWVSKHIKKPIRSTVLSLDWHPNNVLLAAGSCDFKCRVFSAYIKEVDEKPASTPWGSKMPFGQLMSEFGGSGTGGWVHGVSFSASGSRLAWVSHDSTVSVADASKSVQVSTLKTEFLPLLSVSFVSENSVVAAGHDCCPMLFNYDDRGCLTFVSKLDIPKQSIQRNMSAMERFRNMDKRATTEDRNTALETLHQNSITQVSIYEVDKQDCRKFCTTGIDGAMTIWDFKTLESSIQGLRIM
UniProt Q9H0Y0: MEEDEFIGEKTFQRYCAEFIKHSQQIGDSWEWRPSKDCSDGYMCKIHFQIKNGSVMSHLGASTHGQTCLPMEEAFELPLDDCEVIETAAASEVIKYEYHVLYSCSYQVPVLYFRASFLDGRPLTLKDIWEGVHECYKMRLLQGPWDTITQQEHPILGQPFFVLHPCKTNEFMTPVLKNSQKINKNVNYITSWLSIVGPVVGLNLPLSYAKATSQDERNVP
UniProt Q9ULH1: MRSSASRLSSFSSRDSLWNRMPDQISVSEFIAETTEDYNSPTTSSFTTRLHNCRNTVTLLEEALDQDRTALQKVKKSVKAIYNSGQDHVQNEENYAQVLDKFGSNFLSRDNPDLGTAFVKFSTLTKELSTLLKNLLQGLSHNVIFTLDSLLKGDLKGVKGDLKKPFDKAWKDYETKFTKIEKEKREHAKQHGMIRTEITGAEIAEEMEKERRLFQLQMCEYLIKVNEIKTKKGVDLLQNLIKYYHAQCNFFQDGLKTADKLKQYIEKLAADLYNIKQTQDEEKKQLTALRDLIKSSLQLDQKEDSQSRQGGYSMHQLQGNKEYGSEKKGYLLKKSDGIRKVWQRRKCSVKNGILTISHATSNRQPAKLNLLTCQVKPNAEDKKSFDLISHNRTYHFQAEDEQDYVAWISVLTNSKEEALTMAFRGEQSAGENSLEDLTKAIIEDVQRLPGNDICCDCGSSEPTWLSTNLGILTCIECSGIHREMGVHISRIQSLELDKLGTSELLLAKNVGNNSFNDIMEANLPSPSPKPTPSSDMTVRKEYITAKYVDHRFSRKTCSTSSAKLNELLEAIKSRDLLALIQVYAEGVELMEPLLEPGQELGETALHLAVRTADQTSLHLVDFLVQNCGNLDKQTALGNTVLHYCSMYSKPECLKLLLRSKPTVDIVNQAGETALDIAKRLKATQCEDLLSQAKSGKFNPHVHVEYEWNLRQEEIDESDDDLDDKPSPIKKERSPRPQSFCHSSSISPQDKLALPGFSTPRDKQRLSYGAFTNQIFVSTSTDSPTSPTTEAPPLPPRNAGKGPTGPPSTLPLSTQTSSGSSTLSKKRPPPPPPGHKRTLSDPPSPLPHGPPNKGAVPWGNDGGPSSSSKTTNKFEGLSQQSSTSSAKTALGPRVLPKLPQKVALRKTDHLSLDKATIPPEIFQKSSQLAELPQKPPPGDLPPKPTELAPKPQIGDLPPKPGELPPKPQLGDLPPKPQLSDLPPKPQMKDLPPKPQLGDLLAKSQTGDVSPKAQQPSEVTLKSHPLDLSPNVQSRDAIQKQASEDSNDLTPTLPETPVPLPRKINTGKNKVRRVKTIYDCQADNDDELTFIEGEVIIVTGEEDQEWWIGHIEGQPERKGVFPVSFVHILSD
UniProt Q6ZNE5, whole entry, looked up: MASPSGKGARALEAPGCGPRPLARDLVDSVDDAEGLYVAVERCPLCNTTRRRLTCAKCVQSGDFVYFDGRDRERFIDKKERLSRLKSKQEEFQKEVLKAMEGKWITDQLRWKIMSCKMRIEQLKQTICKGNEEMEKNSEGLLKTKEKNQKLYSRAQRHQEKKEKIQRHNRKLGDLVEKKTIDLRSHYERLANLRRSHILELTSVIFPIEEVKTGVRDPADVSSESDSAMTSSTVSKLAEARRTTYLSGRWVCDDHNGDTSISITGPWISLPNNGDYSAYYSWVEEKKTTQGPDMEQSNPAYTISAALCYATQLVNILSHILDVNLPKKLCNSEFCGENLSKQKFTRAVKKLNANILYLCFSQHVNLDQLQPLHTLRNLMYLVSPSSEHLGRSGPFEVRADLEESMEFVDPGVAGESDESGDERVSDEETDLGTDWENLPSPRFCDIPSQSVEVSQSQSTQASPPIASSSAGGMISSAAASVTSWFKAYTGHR
UniProt O95260: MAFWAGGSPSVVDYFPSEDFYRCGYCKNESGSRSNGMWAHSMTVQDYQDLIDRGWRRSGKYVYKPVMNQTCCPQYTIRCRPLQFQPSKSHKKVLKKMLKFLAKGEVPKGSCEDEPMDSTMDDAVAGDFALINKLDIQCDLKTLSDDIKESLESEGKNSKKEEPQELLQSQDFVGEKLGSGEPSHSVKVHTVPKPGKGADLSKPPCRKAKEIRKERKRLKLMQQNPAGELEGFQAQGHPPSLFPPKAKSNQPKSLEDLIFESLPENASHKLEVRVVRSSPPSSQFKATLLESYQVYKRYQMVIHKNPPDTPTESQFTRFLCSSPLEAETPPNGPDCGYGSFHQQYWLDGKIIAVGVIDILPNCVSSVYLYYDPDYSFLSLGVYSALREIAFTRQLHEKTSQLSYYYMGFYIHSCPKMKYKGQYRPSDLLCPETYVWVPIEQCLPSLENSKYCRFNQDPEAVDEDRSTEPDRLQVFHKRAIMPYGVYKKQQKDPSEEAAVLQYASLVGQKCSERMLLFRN

Columns and labels:
Experiment in all cases: log2 fold change, soluble protein after heating vs DMSO (PISA); higher = thermal stabilisation; K562 cells, 10 uM, 30 min; active = over 0.2 and 3.5 SD of the protein, either way, in both replicates (recomputed)
[1] = compound: Cc1nc(Nc2ncc(C(=O)Nc3c(C)cccc3Cl)s2)cc(N2CCN(CCO)CC2)n1 [dasatinib]
Method in brief: (§1)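 Thermal stability values are relative to control samples and come from duplicates. They are expressed as log2 fold changes. For measurement, K562 cells (2×10^6 cells/mL) received 10 μM compound for 30 min, and aliquots were heated for 3 min over 48°C-58°C, pooled, and extracted at 4°C in PBS with 0.5% NP-40. Soluble protein, the supernatant after 21,000xg for 90 min, was quantified by TMTpro 16plex LC-MS/MS with equalised channel sums.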

[2] = compound: Cn1cc(-c2ccc3c(c2)CCN3C(=O)Cc2cccc(C(F)(F)F)c2)c2c(N)ncnc21
Method in brief: as §1

[3] = compound: Cn1cc(-c2ccc3nnc(C(F)(F)c4ccc5ncccc5c4)n3n2)cn1
Method in brief: as §1

[4] = compound: FC(F)(F)c1ccc(/C=C/c2nc(COc3ccc(CCCCn4ccnn4)cc3)co2)cc1 [mubritinib]
Method in brief: as §1

[5] = compound: Cc1ccc(NC(=O)c2ccc(CN3CC[C@H](N(C)C)C3)c(C(F)(F)F)c2)cc1Nc1nccc(-c2cncnc2)n1 [bafetinib]
Method in brief: as §1

[6] = compound: Cc1cccc(CC(=O)N2CCc3c2ccc(-c2cn(C)c4ncnc(N)c24)c3F)n1
Method in brief: as §1

[7] = compound: Cn1cncc1[C@@](N)(c1ccc(Cl)cc1)c1ccc2c(c1)c(-c1cccc(Cl)c1)cc(=O)n2C [tipifarnib]
Method in brief: as §1

[8] = compound: Cc1cn(-c2cc(NC(=O)c3ccc(C)c(Nc4nccc(-c5cccnc5)n4)c3)cc(C(F)(F)F)c2)cn1 [nilotinib]
Method in brief: as §1

[9] = compound: Cc1nc(Nc2n[nH]c3c2CN(C(=O)N[C@H](CN(C)C)c2ccccc2)C3(C)C)c2sccc2n1
Method in brief: as §1

[10] = compound: Cc1ncc(-c2ccnc(Nc3ccc(S(C)(=O)=O)cc3)n2)n1C(C)C
Method in brief: as §1

Target	log2 fold change [1]	log2 fold change [2]	log2 fold change [3]	log2 fold change [4]	log2 fold change [5]	log2 fold change [6]	log2 fold change [7]	log2 fold change [8]	log2 fold change [9]	log2 fold change [10]
ASCC2 (UniProt Q9H1I8)	inactive: -0.209	inactive: -0.285	inactive: 0.015	inactive: -0.045						
ATP1B2 (UniProt P14415)	inactive: 0.009	inactive: 0.149	inactive: 0.018	inactive: -0.023	inactive: -0.146	inactive: -0.014	inactive: 0.027			
ASXL2 (UniProt Q76L83)	inactive: -0.091									
ATG2A (UniProt Q2TAZ0)						inactive: -0.098				
ATG4A (UniProt Q8WYN0)		inactive: -0.021								
ATF7 isoform 6 (UniProt P17544)	active: 0.504	inactive: 0.055	inactive: -0.266	inactive: 0.018	inactive: 0.02		inactive: 0	inactive: -0.026	inactive: -0.081	inactive: -0.019
ATP6V0C (UniProt P27449)	inactive: -0.095	inactive: -0.127		inactive: -0.112	inactive: 0.058	inactive: 0.276	inactive: 0.019	inactive: 0.133	inactive: -0.222	inactive: 0.013
ATG12 (UniProt O94817)	inactive: 0.001	inactive: 0.05		inactive: 0.069	inactive: -0.017	inactive: 0.195	inactive: -0.038	inactive: -0.008	inactive: 0.034	inactive: -0.01
ATP6V0A1 isoform 3 (UniProt Q93050)	inactive: 0.018	inactive: -0.097	inactive: -0.098	inactive: -0.026	inactive: -0.12	inactive: 0.153	inactive: 0.038	inactive: -0.026	inactive: -0.029	inactive: -0.079
ARIH2 (UniProt O95376)	inactive: -0.029	inactive: -0.027	inactive: -0.006	inactive: 0.037	inactive: -0.09	inactive: 0.014	inactive: 0.043	inactive: -0.012	inactive: -0.053	inactive: 0.022
ARL5B (UniProt Q96KC2)	inactive: 0.11	inactive: -0.032		inactive: -0.001	inactive: 0.083	inactive: 0.019	inactive: 0.03	inactive: -0.012	inactive: 0.088	inactive: 0.147
ATF3 (UniProt P18847)	inactive: -0.07	inactive: -0.044	inactive: -0.019		inactive: -0.136		inactive: 0.108	inactive: -0.097	inactive: 0.004	inactive: -0.103
ASCC1 isoform 2 (UniProt Q8N9N2)	inactive: -0.077	inactive: -0.041	inactive: -0.034	inactive: 0.03	inactive: -0.018	inactive: 0.002	inactive: -0.053	inactive: -0.052	inactive: -0.041	inactive: -0.048
ATP5PB (UniProt P24539)	inactive: 0.065	inactive: 0.016	inactive: 0.017	inactive: -0.007	inactive: 0.001	inactive: -0.027	inactive: 0.021	inactive: -0.01	inactive: 0.031	inactive: -0.007
ATP2C1 isoform 3 (UniProt P98194)		inactive: -0.148		inactive: -0.056	inactive: -0.024		inactive: 0			
ATPSCKMT (UniProt Q6P4H8)	inactive: 0.131	inactive: 0.091		inactive: 0.054	inactive: -0.008	inactive: -0.05	inactive: -0.002	inactive: 0.023	inactive: -0.011	inactive: -0.071
ATF6 (UniProt P18850)			inactive: -0.326							
ASB6 (UniProt Q9NWX5)			inactive: -0.034	inactive: 0.037	inactive: -0.039	inactive: 0.014	inactive: -0.02	inactive: -0.066	inactive: -0.279	inactive: -0.07
ARMC8 isoform 6 (UniProt Q8IUR7)					inactive: -0.012			inactive: -0.034	inactive: -0.079	inactive: -0.052

Target	log2 fold change [1]	log2 fold change [2]	log2 fold change [3]	log2 fold change [4]	log2 fold change [5]	log2 fold change [6]	log2 fold change [7]	log2 fold change [8]	log2 fold change [9]	log2 fold change [10]
ASXL1 (UniProt Q8IXJ9)		inactive: -0.022		inactive: -0.061	inactive: 0.213		inactive: 0.062			
ATP5F1B (UniProt F8W0P7)	inactive: 0.09		inactive: 0.039	inactive: 0.051	inactive: 0.097		inactive: -0.066	inactive: 0.119	inactive: 0.099	inactive: 0.202
ATP5F1B (UniProt H0YI37)	inactive: 0.121				inactive: -0.595	inactive: -0.3	inactive: 0.155			
ATP5PD (UniProt O75947)	inactive: 0.023	inactive: 0.025	inactive: 0.025	inactive: -0.001	inactive: -0.044	inactive: 0.035	inactive: 0.033	inactive: -0.011	inactive: 0.043	inactive: -0.012
ARL13B (UniProt Q3SXY8)	inactive: 0.124		inactive: -0.086	inactive: 0.07	inactive: -0.016	inactive: 0.03		inactive: 0.067	inactive: -0.004	inactive: -0.036
ATP1A1 (UniProt P05023)	inactive: 0.07	inactive: 0.04	inactive: 0.001	inactive: 0.023	inactive: 0.018	inactive: 0.102	inactive: -0.011	inactive: 0.062	inactive: 0.008	inactive: 0.005
ARL4A (UniProt P40617)				inactive: 0.078	inactive: 0.145					
ARRB1 isoform 2 (UniProt P49407)	inactive: 0.048	inactive: -0.052	inactive: -0.027	inactive: -0.033	inactive: -0.135	inactive: 0.079	inactive: 0.048			
ARPC1A (UniProt Q92747)	inactive: 0.105	inactive: 0.023	inactive: 0.011	inactive: 0.005	inactive: -0.043	inactive: 0	inactive: -0.079	inactive: 0.18	inactive: 0.026	inactive: 0.181
ARPIN isoform 2 (UniProt Q7Z6K5)			inactive: 0.216	inactive: 0.068	inactive: -0.122	inactive: 0.235	inactive: 0.103	inactive: 0.124	inactive: -0.27	inactive: -0.034
ATG10 (UniProt Q9H0Y0)					inactive: -0.051	inactive: 0		inactive: -0.177	inactive: -0.007	inactive: -0.173
ATP2B2 (UniProt Q01814)	inactive: -0.208	inactive: 0.155				inactive: 0.015	inactive: -0.202			
ASAP1 isoform 2 (UniProt Q9ULH1)	inactive: -0.071	inactive: 0.031	inactive: 0.029	inactive: 0.122	inactive: 0.151	inactive: 0.037	inactive: 0	inactive: -0.034	inactive: -0.026	inactive: 0.008
ATF1 (UniProt P18846)		inactive: -0.006		inactive: 0.057	inactive: -0.12	inactive: 0.018	inactive: 0.06	inactive: 0.035	inactive: -0.09	inactive: 0.064
ATG14 (UniProt Q6ZNE5)					inactive: -0.04		inactive: -0.225			
ATE1 (UniProt O95260)	inactive: 0.181	inactive: -0.015					inactive: 0.104			
ATF7IP isoform 4 (UniProt Q6VMQ6)		inactive: 0.018		inactive: 0.322	inactive: -0.135	inactive: -0.078		inactive: -0.27	inactive: 0.041	inactive: -0.009
ATP1A2 (UniProt P50993)	inactive: -0.745									
ARL6 isoform 2 (UniProt Q9H0F7)			inactive: 0.118							

Some values from the list.
Under log2 fold change [6], ARPC1A (UniProt Q92747) is entered as inactive: 0
Under log2 fold change [5], ATF7IP isoform 4 (UniProt Q6VMQ6) is entered as inactive: -0.135
Under log2 fold change [9], ATP5PD (UniProt O75947) is entered as inactive: 0.043
